The text below walks through data of PubChem BioAssay AID493014 (National Center for Advancing Translational Sciences (NCATS), 2011).

This assay can be described thus: qHTS Assay to Find Inhibitors of Chronic Active B-Cell Receptor Signaling. The settings on record: ABC-DLBCL IkBa-CBG/CBR reporter, luminescence ratio (green luciferase fused to IkBa over red control in TMD8 lymphoma cells), 4 h. In a few lines:
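Concentration-response series (up to 46 uM) were applied to TMD8 dual-reporter cells for 4 h at 37C with doxycycline. Green/red ratio, after filter-overlap correction, defined %Activity; red signal alone was normalised to basal cells and zero luminescence.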
(qHTS replaces the single test concentration by a dilution series.)

Where [1] appears, read: measured here: CBR red luminescence, cell number.
Where [2] appears, read: measured here: IkBa-CBG green luminescence.

The list shows a part of the results. The main result of the screen is listed elsewhere. These columns were measured beside it and carry no call. Most of these compounds were active or inconclusive in the main read-out, so they are no random draw. Words in brackets tell the shape of the fitted curve; partial curves, single points and poor fits give uncertain potencies.

As usually defined, the AC50 is the midpoint of the concentration-response curve, whichever way the signal moves.

As to `Cc1cc(C)cc(OCC(O)CN2CC(C)OC(C)C2)c1` (stereo not drawn), the AC50 under setting [1] was 2.82 µM [rising, full curve].

Take `O=C(Nc1cc(Cl)ccc1Cl)C1(c2cccs2)CCOCC1`: the concentration at half-maximal activity (AC50) under setting [1] was 15.8 µM [rising, partial curve, poor fit].

For the molecule `CCc1ccc(NC(=O)C2CCCN(S(=O)(=O)c3cnc[nH]3)C2)cc1` (stereo not drawn), the half-maximal activity concentration (AC50) under setting [1] was 14.1 µM [falling, partial curve].

As for `O=C(NN=C1c2ccccc2-c2ccccc21)c1cccc(Br)c1`, the AC50 under setting [1] is 0.517 µM [rising, full curve, poor fit].

Consider `O=C(O)c1cc(O)c2c(c1)C(=O)c1cccc(O)c1C2=O`, for which the concentration at half-maximal activity (AC50) was 1.84 µM [falling, full curve] under setting [1] and 16.4 µM [rising, single point] under setting [2].

For the molecule `O=C1C=CC(=O)N1c1ccc(OC(F)F)cc1`, the AC50 was 11.6 µM [falling, partial curve] under setting [1] and 23.1 µM [rising, partial curve, poor fit] under setting [2].

For the molecule `CC(=O)Nc1cccc(NC(=O)Nc2ccc(C)c(Cl)c2)c1`, under setting [1], the concentration at half-maximal activity (AC50) is 8.91 µM [falling, partial curve, poor fit].

Consider `COc1ccc(C2=NC(c3ccccc3)CO2)cc1` (stereo not drawn), for which, under setting [1], the AC50 is 0.651 µM [falling, full curve].

For the molecule `CC(NC(=O)c1ccccc1Cl)C(=O)NCc1cccs1` (stereo not drawn), the AC50 under setting [1] is 0.82 µM [falling, full curve].

Consider `CC(O)/C=C/c1ccc2ccccc2n1` (stereo not drawn), for which, under setting [1], the AC50 was 0.731 µM [falling, full curve, poor fit].

`COC(=O)c1[nH]c2cccc(OC)c2c1NC(=O)CN1CC(C)OC(C)C1` (stereo not drawn): the AC50 under setting [1] is 9.2 µM [rising, partial curve, poor fit].

On to `CC(C)c1cccc(C2=CC(=O)C[C@H](c3ccc(F)cc3)C2)c1`, for which the concentration at half-maximal activity (AC50) under setting [1] is 2.06 µM [rising, partial curve, poor fit].

Regarding `COc1ccc(-c2nc3ccc(C)cn3c2NCc2ccccc2)cc1SC1CCCCC1`, the AC50 under setting [1] was 20.6 µM [rising, single point].

`Cc1nnc(SCC(=O)Nc2ccc(N3CCOCC3)cc2)o1`: under setting [1], the AC50 was 32.6 µM [rising, single point].

Take `O=C(OCc1ccccc1)c1ccc2c(c1)-c1ccccc1C2=O`: the AC50 under setting [1] was 0.366 µM [falling, full curve].

On to `N#Cc1cnc2cc(-c3ccccc3)nn2c1N`, for which the AC50 under setting [2] is 0.891 µM [rising, full curve, poor fit].

On to `O=C(O)CCN1C(=O)c2ccc(NC(=O)CSCc3ccccc3)cc2C1=O`, for which, under setting [1], the AC50 was 4.11 µM [rising, full curve, poor fit].

Regarding `Fc1ccc(-c2csc(-c3ccccn3)n2)cc1F`, the AC50 under setting [1] is 11.2 µM [rising, single point].

Regarding `Cc1ccc(-c2c3c(nc4sc(C(N)=O)c(N)c24)CCCC3)o1`, the AC50 under setting [1] is 20.6 µM [falling, single point].

For the molecule `CN(C)c1cccc(C(=O)OC(C(=O)Nc2ccc([N+](=O)[O-])cc2Br)c2ccccc2)c1` (stereo not drawn), the AC50 under setting [1] was 29.1 µM [rising, single point].

Turning to `Cc1cc(C)nc(N/N=C2/CCSc3ccc(F)cc32)n1`, the AC50 under setting [1] is 35.5 µM [falling, single point].

Consider `Cc1ccsc1C(=O)Nc1cc(C(C)(C)C)nn1-c1ccccc1`, for which the AC50 under setting [1] is 4.11 µM [falling, full curve, poor fit].

On to `COc1cc2nc(=S)n3[nH]c(CCn4nc(C)cc4C)nc3c2cc1OC`, for which, under setting [2], the AC50 was 0.517 µM [falling, partial curve, poor fit].

With `COc1cccc(NC(=O)c2ncn[nH]2)c1`, under setting [1], the AC50 is 5.8 µM [falling, partial curve].

Take `Cc1cccc(C=Nc2ccc3c4c(cccc24)CC3)c1O`: the AC50 under setting [2] is 20.6 µM [falling, partial curve, poor fit].

Consider `CSc1nc2ccsc2c(=O)n1-c1ccccc1`, for which the AC50 under setting [1] was 12.6 µM [rising, single point].

With `O=C(NCc1cccnc1)c1cc(-c2ccccc2)on1`, the AC50 under setting [1] is 18.4 µM [falling, single point].

Turning to `O=C1COc2ccc(C(=O)COC(=O)c3ccccc3Cl)cc2N1`, the AC50 under setting [1] was 9.2 µM [rising, partial curve].

In the case of `CC(C)C(=O)Nc1cccc(NC(=S)NC(=O)c2ccc(Cl)cc2)c1`, under setting [1], the AC50 is 8.91 µM [falling, partial curve, poor fit].

With `O=C(Nc1ccc(Cl)c(Cl)c1)c1cccc(S(=O)(=O)NCc2cccnc2)c1`, under setting [1], the AC50 was 18.4 µM [falling, partial curve].

In the case of `Cc1csc(NC(=O)c2ccc(Cn3nc(C)c(Br)c3C)o2)n1`, under setting [1], the AC50 was 1.12 µM [falling, full curve, poor fit].

Take `COc1cc(-c2noc(C)c2C#CC2(O)CCCCC2)cc(OC)c1OC`: the concentration at half-maximal activity (AC50) under setting [1] is 3.98 µM [falling, partial curve].

In the case of `COc1cccc(NC(=O)CN(C)C(=O)c2ccc(N3CCCCC3)c([N+](=O)[O-])c2)c1`, under setting [1], the AC50 was 0.651 µM [falling, partial curve, poor fit].

With `O=S(=O)(NCc1cccs1)c1ccccc1Cl`, the AC50 under setting [1] is 18.4 µM [rising, single point].

Turning to `COCCn1c(=S)[nH]c2cc(C(=O)NCCCN3CCOCC3)ccc2c1=O`, the AC50 under setting [1] is 6.31 µM [falling, single point].

As for `CCOC(=O)c1cc2cc(F)ccc2nc1C`, under setting [1], the AC50 is 0.0058 µM [falling, full curve, poor fit].

Turning to `COc1ccc(-c2cccc(C(=O)Nc3ccccc3C)c2)cc1`, under setting [1], the concentration at half-maximal activity (AC50) was 29.1 µM [falling, single point].

For the molecule `Cn1c(SCC(=O)c2ccccc2F)nnc1C1CC1`, the half-maximal activity concentration (AC50) under setting [2] was 28.2 µM [falling, single point].

In the case of `COc1ccc(/C=N/NC(N)=S)cc1`, the AC50 under setting [1] is 0.562 µM [rising, full curve, poor fit].

With `O=C(O)c1cc(N/N=C/c2ccncc2)ccc1Cl`, the AC50 under setting [1] is 20 µM [falling, single point].

As for `COc1cc(OC)cc(-c2c(-c3cccs3)c3cc(-c4cnc(N)nc4)ccc3n2C)c1`, the AC50 under setting [1] was 2.91 µM [falling, full curve].

Consider `Nc1ccccc1C(=O)NNC1=C(C(=O)C(F)(F)F)CCC1`, for which the AC50 under setting [1] was 35.5 µM [falling, single point].

Consider `CCOC(=O)c1ccc(NC(=O)c2nc[nH]c2C(=O)N[C@H](C)c2ccccc2)cc1`, for which the AC50 under setting [1] was 12.6 µM [rising, partial curve].

Regarding `COc1ccc(NC(=O)NCCN2CCc3ccccc3C2)cc1`, the AC50 under setting [1] was 25.9 µM [rising, partial curve].

Regarding `O=C(c1ccc(-c2ccccc2)cc1)c1ccccc1C(=O)N1CCOCC1`, the AC50 under setting [1] was 29.1 µM [rising, single point].

Regarding `O=C(CSCc1c(F)cccc1Cl)Nc1ccccc1C(=O)N1CCOCC1`, the AC50 under setting [1] is 12.6 µM [rising, single point].

With `CCOC(=O)C(=CN(CCc1ccccc1)CC(=O)OC)C(=O)OCC`, the AC50 under setting [1] was 18.4 µM [rising, partial curve, poor fit].

For the molecule `CCOC(=O)c1ccc(NC(=O)CCNC(=O)c2ccc([N+](=O)[O-])cc2)cc1`, under setting [1], the AC50 is 23.1 µM [rising, single point].

For `O=C1CC(NCc2ccc3c(c2)OCO3)C(=O)N1CCc1ccccc1` (stereo not drawn), the half-maximal activity concentration (AC50) under setting [1] was 0.651 µM [rising, full curve, poor fit].

For the molecule `COc1ccc(C(C)=O)cc1COc1ccc(-n2cnnn2)cc1`, the AC50 under setting [1] is 10.3 µM [rising, single point].

As for `O=C(c1ccco1)N1CCN(S(=O)(=O)c2ccc([N+](=O)[O-])cc2)CC1`, the AC50 under setting [1] was 6.31 µM [rising, single point].

With `CC(C)C[C@@H](C(=O)NC1CC1)N1C(=O)N2CCc3c([nH]c4ccccc34)[C@@]2(C)C1=O`, the AC50 under setting [1] is 4.47 µM [falling, full curve].

Turning to `NS(=O)(=O)c1ccc(NC(=S)NC2CCCCCC2)cc1`, the AC50 under setting [1] was 1.46 µM [rising, partial curve].

Consider `Cc1ccc(S(=O)(=O)n2ccc3c(OCCOCCSCC(NC(=O)OC(C)(C)C)C(=O)O)cccc32)cc1` (stereo not drawn), for which the AC50 under setting [1] was 35.5 µM [falling, single point].

Regarding `CCOC(=O)C1CCCN(CC(=O)NC2=Nc3ccccc3N=C(C)C2c2ccccc2)C1` (stereo not drawn), under setting [1], the AC50 was 0.259 µM [rising, partial curve, poor fit].

On to `CCc1nc(N2CCN(C(C)=O)CC2)c2c3c(sc2n1)CCCC3`, for which, under setting [1], the AC50 was 12.6 µM [falling, partial curve].

As for `COc1cc([N+](=O)[O-])cc2sc(NC(=O)c3c(F)cccc3F)nc12`, under setting [1], the AC50 is 6.31 µM [falling, partial curve, poor fit].

With `Cc1cccc(NC(=O)c2oc3ccc(S(=O)(=O)N(C)C4CCCCC4)cc3c2C)c1C`, the half-maximal activity concentration (AC50) under setting [1] is 3.16 µM [falling, partial curve, poor fit].

With `Cc1ccccc1Cn1c(=O)n(CCC(=O)NCc2ccc3c(c2)OCO3)c(=O)c2ccccc21`, the AC50 under setting [1] was 6.51 µM [rising, single point].

On to `CC(=O)NC1=NC(=O)/C(=C/c2cn(C(C)=O)nc2-c2ccccc2)S1`, for which the AC50 under setting [1] is 12.6 µM [falling, partial curve, poor fit].

Consider `NS(=O)(=O)c1ccc(CCNc2nc3c(-c4cccc(F)c4)nnn3c3ccccc23)cc1`, for which, under setting [1], the AC50 was 1.16 µM [falling, full curve].

Regarding `CCc1nn(CC(=O)NCCN2CCN(C)CC2)c(=O)c2cc3occc3n12`, the AC50 under setting [1] is 0.631 µM [falling, partial curve, poor fit].

Take `NC(=S)N/N=C1\CCOc2ccc(F)cc21`: the AC50 is 12.6 µM [falling, partial curve] under setting [1] and 35.5 µM [falling, single point] under setting [2].

Consider `COc1cc(/C=N/NC(=O)c2ccc(C)nc2)cc([N+](=O)[O-])c1O`, for which the AC50 under setting [1] was 1.78 µM [falling, partial curve].

Regarding `CC(Oc1ccc2c(=O)c(-c3ccc(Cl)cc3)c(C(F)(F)F)oc2c1)C(=O)O` (stereo not drawn), the AC50 under setting [1] was 3.55 µM [falling, partial curve, poor fit].
